These are yes or no findings as the source states them, for the method shown. Some entries that bind do so weakly or less than the wild type.
Target: CXC chemokine receptor type 4 (CXCR4) (human) (UniProt P61073)
Test: antibody competition assay (FIG. 8B)

By UniProt entry, the sequences of proteins in these tests, tags left out.
UniProt P61073: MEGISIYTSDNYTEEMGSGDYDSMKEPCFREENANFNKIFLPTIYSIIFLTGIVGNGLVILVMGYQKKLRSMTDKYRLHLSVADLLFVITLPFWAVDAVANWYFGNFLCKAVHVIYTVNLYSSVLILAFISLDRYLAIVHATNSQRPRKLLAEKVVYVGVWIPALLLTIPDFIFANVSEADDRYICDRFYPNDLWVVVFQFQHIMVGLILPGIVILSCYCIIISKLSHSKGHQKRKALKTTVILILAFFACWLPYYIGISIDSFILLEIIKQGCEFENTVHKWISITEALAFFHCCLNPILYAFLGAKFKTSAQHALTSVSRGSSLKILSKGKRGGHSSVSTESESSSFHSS

binding	Binder
binds	ILRWSRKLPCVS (two peptide copies on one end, coupled to DSPE via PEG) [SC069]
binds	ILRWSRKLPCVS (coupled to DSPE via PEG) [SC001]
